Results are given in words; binding and its absence hold for the method and conditions named. Binding seen in cells or lysates may run through a third protein. Some results given as binding are weak or reduced against the parent protein; the word gives no strength.

Sequences of proteins named here, by UniProt entry; tags and fusion partners are left off.
UniProt P11679: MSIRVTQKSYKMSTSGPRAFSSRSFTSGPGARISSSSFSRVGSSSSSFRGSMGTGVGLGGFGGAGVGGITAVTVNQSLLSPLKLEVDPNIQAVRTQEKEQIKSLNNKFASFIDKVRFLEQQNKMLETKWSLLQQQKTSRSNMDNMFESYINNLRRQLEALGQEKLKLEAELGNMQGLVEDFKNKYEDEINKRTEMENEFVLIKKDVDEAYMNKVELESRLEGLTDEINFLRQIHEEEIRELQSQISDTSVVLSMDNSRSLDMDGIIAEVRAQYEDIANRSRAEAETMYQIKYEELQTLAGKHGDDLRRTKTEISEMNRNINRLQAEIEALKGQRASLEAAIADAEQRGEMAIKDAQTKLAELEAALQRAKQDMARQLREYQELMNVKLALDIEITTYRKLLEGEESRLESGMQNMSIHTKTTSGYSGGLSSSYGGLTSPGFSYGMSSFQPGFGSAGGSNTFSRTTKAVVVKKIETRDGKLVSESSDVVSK

In the test the target is T1, endogenous TRAF6 of mouse colon tissue (mouse (endogenous in colon tissue)) (UniProt P70196).
T1 sequence: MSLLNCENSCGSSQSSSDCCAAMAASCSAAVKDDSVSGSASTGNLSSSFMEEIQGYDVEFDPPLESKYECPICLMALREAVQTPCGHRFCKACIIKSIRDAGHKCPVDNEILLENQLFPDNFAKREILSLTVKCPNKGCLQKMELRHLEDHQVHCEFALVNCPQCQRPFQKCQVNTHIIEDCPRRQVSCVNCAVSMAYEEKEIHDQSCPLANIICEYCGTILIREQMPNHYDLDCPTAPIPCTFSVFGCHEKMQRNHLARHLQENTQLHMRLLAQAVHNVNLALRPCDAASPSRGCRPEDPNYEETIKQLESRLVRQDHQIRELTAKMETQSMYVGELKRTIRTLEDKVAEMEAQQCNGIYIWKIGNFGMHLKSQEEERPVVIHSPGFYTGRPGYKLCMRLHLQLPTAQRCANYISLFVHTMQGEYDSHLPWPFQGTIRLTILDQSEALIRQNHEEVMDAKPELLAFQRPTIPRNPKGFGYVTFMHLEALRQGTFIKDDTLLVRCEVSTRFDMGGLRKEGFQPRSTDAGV
As to the kind of experiment: co-IP; endogenous proteins in mouse colon tissue.

As for “endogenous CK8 (Keratin 8) of mouse colon tissue (from UniProt P11679 1-490)”, the binding result is given as “binds”.

These data come from paper PMC5009362.
